Reference: US20160362464A1
These are yes or no findings as the source states them, for the method shown. Binding seen in cells or lysates may run through a third protein. Some binding calls cover weakened binding; strength is not graded here.

Amino acid sequences for entries named in this document (tags omitted).
UniProt P08753: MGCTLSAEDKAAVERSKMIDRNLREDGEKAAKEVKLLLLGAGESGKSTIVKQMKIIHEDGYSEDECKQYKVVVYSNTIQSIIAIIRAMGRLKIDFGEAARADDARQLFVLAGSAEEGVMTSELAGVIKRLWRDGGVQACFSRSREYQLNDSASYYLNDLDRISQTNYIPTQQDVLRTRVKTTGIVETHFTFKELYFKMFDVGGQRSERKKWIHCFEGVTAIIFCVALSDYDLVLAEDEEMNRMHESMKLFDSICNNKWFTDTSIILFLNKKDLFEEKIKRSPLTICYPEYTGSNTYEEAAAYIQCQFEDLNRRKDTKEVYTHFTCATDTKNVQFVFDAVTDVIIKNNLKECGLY

Biological target: GST-Gαi3 preloaded with GDP (inactive) (rat) (UniProt P08753)
Assay: competition in GST pulldown, KB-752 varied, His-DAPLE-CT fixed (FIG. 10A)

**Q.** Which binding does the source give for SRVTWYDFLMEDTKSR [KB-752 synthetic GEF peptide] here?
**A.** binds
